The values are deposited in ChEMBL (CHEMBL3988442, “University of Dundee, Small-Polar-MMV Screening Library” (2021)).

Protein sequences, listed by entry. Tags and fused reporters are not part of them.
UniProt E9BF75, entry or part of it: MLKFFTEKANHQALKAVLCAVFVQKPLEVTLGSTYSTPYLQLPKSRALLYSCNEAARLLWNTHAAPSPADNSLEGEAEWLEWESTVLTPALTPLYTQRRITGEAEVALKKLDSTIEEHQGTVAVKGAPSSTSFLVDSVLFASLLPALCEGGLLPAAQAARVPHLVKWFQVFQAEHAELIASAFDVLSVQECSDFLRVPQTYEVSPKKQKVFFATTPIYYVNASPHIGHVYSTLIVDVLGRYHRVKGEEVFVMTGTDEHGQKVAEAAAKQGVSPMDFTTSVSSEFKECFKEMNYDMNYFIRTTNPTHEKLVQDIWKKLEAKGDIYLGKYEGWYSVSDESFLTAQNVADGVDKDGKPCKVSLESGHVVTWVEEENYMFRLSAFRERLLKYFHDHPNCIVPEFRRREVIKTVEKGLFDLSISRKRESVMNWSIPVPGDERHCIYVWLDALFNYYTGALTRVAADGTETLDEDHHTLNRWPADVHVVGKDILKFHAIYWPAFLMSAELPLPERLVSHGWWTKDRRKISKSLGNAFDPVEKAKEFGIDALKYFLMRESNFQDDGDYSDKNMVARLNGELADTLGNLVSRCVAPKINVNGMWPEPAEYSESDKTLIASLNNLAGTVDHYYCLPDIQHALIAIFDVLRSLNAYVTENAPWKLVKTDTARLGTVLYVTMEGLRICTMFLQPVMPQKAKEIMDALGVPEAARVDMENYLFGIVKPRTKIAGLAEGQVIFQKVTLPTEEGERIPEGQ

Mtb heat-shock: 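Assay on Mycobacterium tuberculosis, filed only as a heat shock assay from Cornell; the read-out is not stated. The concentration is filed as 10 mM, unlikely as a test dose, so the dose is not known. The record gives no direction; compounds that gave an IC50 in retests scored well above the rest, so higher reads as stronger inhibition. About 69,000 compounds were tested under these conditions; 1.4% (about 930) showed 50% or more at least once.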
Mtb growth Cornell: 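Whole-cell assay for inhibitors of Mycobacterium tuberculosis growth, labelled Cornell in the record; the read-out is not stated. The concentration is filed as 10 mM, unlikely as a test dose, so the dose is not known. Higher means stronger inhibition (inferred from two other growth screens of the library). Size under these conditions: about 53,000 compounds, about 900 of them at 50% or above in at least one test.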
LdMetRS: 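Primary screen of methionyl-tRNA synthetase; the read-out is not stated. Target: Methionyl-tRNA synthetase (putative), Leishmania donovani (UniProt E9BF75). The test concentration is not given. Values are per cent inhibition. Of about 68,000 compounds tested this way, about 24 (0.035%) reached 50% or more in at least one test.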

All values are in %. The controls that fix the scale are not given in the record; negative values are as filed. This is an unselected part of the compounds tested.

* O=C(NCCNc1ccc(C(F)(F)F)cn1)c1ccc(Cl)cc1F : Mtb heat-shock: 8.219%; LdMetRS: 17.68%
* CCOc1ncccc1NC(=O)c1cc2c(s1)CCC2 : Mtb heat-shock: -19.1%; Mtb growth Cornell: 2.219%; LdMetRS: 7.08%
* CSCc1cc(F)ccc1CNCc1ncc[nH]1 : Mtb heat-shock: 18.2%; Mtb growth Cornell: 16.87%; LdMetRS: 16.52%
* CCCc1ccc2oc(C(=O)N3CCN(CCC(N)=O)CC3)c(C)c2c1 : Mtb heat-shock: -12.11%; Mtb growth Cornell: 2.326%; LdMetRS: 14.83%
* OC(CN1CCOCC1)CN1CCc2c(ncn2C2CC2)C1 (stereo not drawn) : Mtb heat-shock: -15.49%; LdMetRS: 6.993%
* Cc1cn2nc(Sc3nnnn3C)sc2n1 : Mtb heat-shock: 6.174%; Mtb growth Cornell: -10.32%; LdMetRS: 11.64%
* COc1cc(N2CCC3(CCCN(Cc4ccccn4)C3)C2)ncn1 (stereo not drawn) : LdMetRS: 17.14%
* [H][C@@]12CS(=O)(=O)C[C@]1([H])N(Cc1cccnc1)CCN2C(=O)C1CCC1 : Mtb heat-shock: -28.51%; Mtb growth Cornell: -24.32%
* Cc1nnc(C(C)NCC2(c3ccc(Cl)cc3)CCOCC2)o1 (stereo not drawn) : Mtb heat-shock: -6.589%; LdMetRS: 10.15%
* CN(Cc1cnn(C)c1)C(=O)NC1CCN(Cc2ccccn2)CC1 : Mtb heat-shock: 6.238%; Mtb growth Cornell: 11.61%; LdMetRS: 9.312%
* Cc1nc(C(=O)N2CCc3c(nc(-c4ccncc4)[nH]c3=O)C2)cs1 : Mtb heat-shock: -5.78%; Mtb growth Cornell: 20.24%; LdMetRS: 12.59%
* CN(C)CC(=O)N1CCC2(CC1)COC(COc1ccccn1)C2.O=C(O)C(F)(F)F.O=C(O)C(F)(F)F (stereo not drawn) : Mtb heat-shock: -5.805%; Mtb growth Cornell: 7.636%
* COc1ccccc1OCCCN1C(=O)CCNC1=O : Mtb heat-shock: 6.872%; Mtb growth Cornell: -41.4%; LdMetRS: 3.904%
* Cc1cc(C)n(CC2CCCN2CCCS(N)(=O)=O)n1 (stereo not drawn) : Mtb heat-shock: 41.15%; Mtb growth Cornell: 5.652%; LdMetRS: 4.908%
* Cc1nc(CN2CCOC(CNc3cccnn3)C2)cs1 (stereo not drawn) : Mtb heat-shock: 44.15%; Mtb growth Cornell: 12.11%; LdMetRS: 15.69%
* CNC(=O)[C@@H]1C[C@H](n2cc(-c3ccc(Cl)cc3)nn2)CN1 : Mtb heat-shock: -5.038%; LdMetRS: 7.05%
* O=C(CC1CC1)N1CCn2cc(Cn3cccn3)nc2C1.O=C(O)C(F)(F)F : Mtb heat-shock: -0.6568%; Mtb growth Cornell: -45.09%
* CNc1cc(C2CCCN(S(=O)(=O)c3cn[nH]c3)C2)ccn1 (stereo not drawn) : Mtb heat-shock: -9.799%; Mtb growth Cornell: 1.461%; LdMetRS: 15.48%
* Cc1ccc(C(=O)N2CCOCC3(CCN(C4CCOCC4)C3)C2)o1 (stereo not drawn) : LdMetRS: 6.628%
* COCCN(C)C(C)Cc1ccccc1OC (stereo not drawn) : Mtb heat-shock: -2.865%; Mtb growth Cornell: -12.25%; LdMetRS: 10.44%

Once more, the final 2:

{"structure": "Cc1ccc(C(=O)N2CCOCC3(CCN(C4CCOCC4)C3)C2)o1", "stereo": "stereo not drawn", "LdMetRS": 6.628}
{"structure": "COCCN(C)C(C)Cc1ccccc1OC", "stereo": "stereo not drawn", "Mtb heat-shock": -2.865, "Mtb growth Cornell": -12.25, "LdMetRS": 10.44}